{
  "sequences": {"note": "By UniProt entry, the sequences of proteins in these tests, tags left out.", "UniProt P10415": "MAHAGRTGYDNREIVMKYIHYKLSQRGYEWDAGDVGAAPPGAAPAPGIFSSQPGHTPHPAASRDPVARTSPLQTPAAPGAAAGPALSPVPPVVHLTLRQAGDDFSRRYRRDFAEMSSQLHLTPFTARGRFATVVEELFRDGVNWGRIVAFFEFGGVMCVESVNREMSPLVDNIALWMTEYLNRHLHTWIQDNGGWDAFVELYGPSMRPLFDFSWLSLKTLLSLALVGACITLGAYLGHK"},
  "source": "paper PMC8617943",
  "binders": {"B1": {"name": "ATG 4B (protein, UniProt Q9Y4P1 1-393)", "chain": "MDAATLTYDTLRFAEFEDFPETSEPVWILGRKYSIFTEKDEILSDVASRLWFTYRKNFPAIGGTGPTSDTGWGCMLRCGQMIFAQALVCRHLGRDWRWTQRKRQPDSYFSVLNAFIDRKDSYYSIHQIAQMGVGEGKSIGQWYGPNTVAQVLKKLAVFDTWSSLAVHIAMDNTVVMEEIRRLCRTSVPCAGATAFPADSDRHCNGFPAGAEVTNRPSPWRPLVLLIPLRLGLTDINEAYVETLKHCFMMPQSLGVIGGKPNSAHYFIGYVGEELIYLDPHTTQPAVEPTDGCFIPDESFHCQHPPCRMSIAELDPSIAVGFFCKTEDDFNDWCQQVKKLSLLGGALPMFELVELQPSHLACPDVLNLSLDSSDVERLERFFDSEDEDFEILSL"}, "B2": {"name": "ATG 5, Q9H1Y0 1-275 (protein)", "chain": "MTDDKDVLRDVWFGRIPTCFTLYQDEITEREAEPYYLLLPRVSYLTLVTDKVKKHFQKVMRQEDISEIWFEYEGTPLKWHYPIGLLFDLLASSSALPWNITVHFKSFPEKDLLHCPSKDAIEAHFMSCMKEADALKHKSQVINEMQKKDHKQLWMGLQNDRFDQFWAINRKLMEYPAEENGFRYIPFRIYQTTTERPFIQKLFRPVAADGQLHTLGDLLKEVCPSAIDPEDGEKKNQVMIHGIEPMLETPLQWLSEHLSYPDNFLHISIIPQPTD"}},
  "assay_in_all_cases": "co-IP; endogenous proteins in Ca Ski whole cell lysates precleared with Protein A/G PLUS-Agarose; IP with anti-Bcl-2 or anti-Beclin 1 monoclonal antibody or control rabbit IgG, 2 h at room temperature, captured on protein A/G agarose, western blot; cells untreated or treated with RCE-4 8 μmol/L for 6, 12 and 24 h, with or without ATG 4B siRNA",
  "key": {"[1]": {"target": "Bcl-2 (human (endogenous in Ca Ski)) (UniProt P10415)"}, "[2]": {"target": "Beclin 1 (human (endogenous in Ca Ski)) (UniProt Q14457)"}, "[3]": {"target": "Bcl-2 (human (endogenous in Ca Ski)), P10415", "settings": "remark: other sources report otherwise"}},
  "note": "No constants are given. Whether binding was seen depends on the method and setting. Binding seen in cells or lysates may run through a third protein. Some results given as binding are weak or reduced against the parent protein; the word gives no strength.",
  "data": [
    {"binder": "B1", "values": [
      {"measurement": "binding", "setting": "[1]", "result": "binds"},
      {"measurement": "binding", "setting": "[2]", "result": "binds"}
    ]},
    {"binder": "B2", "values": [
      {"measurement": "binding", "setting": "[3]", "result": "binds"}
    ]}
  ]
}
